# Source: PubChem BioAssay AID2734 (National Center for Advancing Translational Sciences (NCATS), 2010)
# This list was built around the results that the source calls inconclusive (neither active nor inactive); the mix of calls is not that of the screen. Potencies beside an inconclusive call are fits to weak or partial responses and may not hold up. Active and inactive are the calls of the source. Calls follow the shape of the dose curve; as a rule, active = well fitted inhibition curve with a large enough effect; inconclusive = small, poorly fitted or top-dose-only effect, or effect the other way; inactive = no such curve, though single readings can be large or run the other way.
# Test: High Content Assay for Compounds that inhibit the Assembly of the Perinucleolar Compartment: DNA Intercalation/PicoGreen Displacement Assay
# Conditions: fluorescence (intercalation counter-screen); series mostly up to 57.1 µM
# How it was run: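 Supercoiled pBR322 plasmid (200 ng/ml in TE) incubated with compounds 30 min at room temperature, baseline read at 488/520 nm, then PicoGreen added, 10 min at 37 C. Decreased fluorescence marks DNA intercalation/displacement.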
row,Compound,Potency
1,COc1cccc(/C=N/NC(=O)c2cc3c(OC)c(OC)ccc3[nH]2)c1OC,"inconclusive: 39.8 µM [activator, single point]"
2,Cc1cccc(/C=C(\c2nc3ccccc3[nH]2)S(=O)(=O)c2ccccc2)c1,"inconclusive: 39.8 µM [activator, partial curve]"
3,Cc1ccc(-n2cc(-c3ccccc3)c3c(NN4CCOCC4)ncnc32)cc1,"inconclusive: 35.5 µM [activator, partial curve]"
4,CC(C)CNC(=O)CSc1nnc(-c2cccc(S(=O)(=O)N3CCCCC3)c2)o1,"inconclusive: 39.8 µM [activator, partial curve]"
5,CCOC(=O)c1c(-c2cccc(C)c2)csc1NC(=O)c1c(-c2ccccc2)noc1C,"inconclusive: 35.5 µM [activator, partial curve]"
6,Cc1ccc(Cl)cc1N(CC(=O)N1CCCCCC1)S(C)(=O)=O,inactive
7,O=C(Nc1cccnc1)c1cccs1,inactive
8,COc1ccc(Cc2nnc(N/N=C/c3ccc(O)cc3)[nH]c2=O)cc1OC,"inconclusive: 39.8 µM [activator, single point]"
9,CC(=O)N(C)C1=C(N2CCOCC2)C(=O)c2ccccc2C1=O,"inconclusive: 6.31 µM [inhibitor, full curve]"
10,Cc1cnc(NC(=O)COc2cccc3c2OC(C)(C)C3)s1,"inconclusive: 31.6 µM [activator, partial curve, poor fit]"
11,CC(=O)/C(C#N)=C1\NC(=O)C(Cc2ccc(C)c(C)c2)S1 (stereo not given),inactive
12,O=S(=O)(Nc1cc(Sc2cccc3cccnc23)c(O)c2ccccc12)c1ccc(F)cc1,"inconclusive: 31.6 µM [inhibitor, partial curve, poor fit]"
13,O=C(N/N=C/c1c(O)ccc2ccccc12)c1cccc(C(F)(F)F)c1,"inconclusive: 25.1 µM [activator, partial curve]"
14,COc1ccc(-c2nc(NC(=O)c3n[nH]c(=O)c4ccccc34)sc2C)cc1,"inconclusive: 28.2 µM [activator, partial curve]"
15,O=C(COC(=O)Cc1ccsc1)NCC1CCCCC1,"inconclusive: 0.178 µM [inhibitor, full curve, poor fit]"
16,N=c1c2c(-c3ccccc3)c(-c3ccccc3)n(Cc3ccccc3)c2ncn1CCCO,"inconclusive: 25.1 µM [activator, partial curve]"
17,O=C1C(=O)c2ccc(-c3ccccc3)cc2-c2ccccc21,active: 4.47 µM
18,O=c1c2ccccc2nnn1CSc1ccc2ccccc2n1,"inconclusive: 0.282 µM [activator, full curve, poor fit]"
19,CN(C)c1ccc(N=Nc2ccccc2C(=O)OCC(=O)NC2CCCC2)cc1,"inconclusive: 3.16 µM [inhibitor, full curve, poor fit]"
20,COc1ccc(-n2c(SC(C)C(=O)Nc3ncc(Cl)cc3Cl)nc3ccccc32)cc1 (stereo not given),"inconclusive: 31.6 µM [activator, partial curve]"
21,Cc1ccc(S(=O)(=O)N(C)c2ccc(OCC(=O)Nc3nc4ccccc4s3)cc2)cc1,"inconclusive: 39.8 µM [activator, partial curve]"
22,Cc1c(NC(=O)COC(=O)c2cc(-c3ccc(-c4ccccc4)cc3)nc3ccccc23)c(=O)n(-c2ccccc2)n1C,"inconclusive: 39.8 µM [activator, partial curve]"
23,O=C1C2CCCN2C(c2ccc(F)cc2)N1c1ccc(Cl)cc1 (stereo not given),"inconclusive: 0.447 µM [inhibitor, full curve, poor fit]"
24,Cc1ccc(OCCn2cc(C(=S)N3CCCC3)c3ccccc32)cc1C,"inconclusive: 39.8 µM [activator, single point]"
25,Cc1cccc(-n2c(SCC(=O)Nc3ncc(Cl)cc3Cl)nc3ccccc32)c1,"inconclusive: 35.5 µM [activator, partial curve]"
26,O=C1C(=Cc2cccs2)C(=O)c2ccccc21,inactive
27,O=C(Nc1ccc(NC(=O)C2CC2)cn1)c1ccccc1Cl,inactive
28,O=C(Cc1cccs1)Nc1nc2c(s1)CCCC2,"inconclusive: 1 µM [inhibitor, full curve]"
29,COC(=O)c1ccc(CSc2ccccc2C)o1,inactive
30,COc1ccc(CN2CCC(C(=O)NCCc3ccc(OC)c(OC)c3)CC2)c(OC)c1,"inconclusive: 31.6 µM [activator, partial curve]"

# Reprinted at random: 2 records from the list
row,Compound,Potency
15,O=C(COC(=O)Cc1ccsc1)NCC1CCCCC1,"inconclusive: 0.178 µM [inhibitor, full curve, poor fit]"
28,O=C(Cc1cccs1)Nc1nc2c(s1)CCCC2,"inconclusive: 1 µM [inhibitor, full curve]"
